Several values for one entry are separate records, joined by “and”; a condition that tells them apart may be missing. Equal values may be shown once.
Experiment: Time on GSK3368715 (treatment duration)
Format: in vivo, human

Question: Which results are given for `CCOCC1(COCC)CCC(c2[nH]ncc2CN(C)CCNC)CC1` [GSK3368715]?
Answer: Time on GSK3368715 3 months to 6 months (50 mg (n = 3)): 0 n (%); Time on GSK3368715, median (range) (50 mg (n = 3)): 53 (25, 56) days; Time on GSK3368715 <3 months (50 mg (n = 3)): 3 (100) n (%); Time on GSK3368715 >6 months to 12 months (50 mg (n = 3)): 0 n (%); Time on GSK3368715 >12 months (50 mg (n = 3)): 0; Time on GSK3368715 3 months to 6 months (100 mg (n = 16)): 3 (19) n (%); Time on GSK3368715, median (range) (100 mg (n = 16)): 58 (13, 224) days; Time on GSK3368715 <3 months (100 mg (n = 16)): 12 (75) n (%); Time on GSK3368715 >6 months to 12 months (100 mg (n = 16)): 1 (6) n (%); Time on GSK3368715 >12 months (100 mg (n = 16)): 0; Time on GSK3368715 3 months to 6 months (200 mg (n = 12)): 2 (17) n (%); Time on GSK3368715, median (range) (200 mg (n = 12)): 24 (1, 114) days; Time on GSK3368715 <3 months (200 mg (n = 12)): 10 (83) n (%); Time on GSK3368715 >6 months to 12 months (200 mg (n = 12)): 0 n (%); Time on GSK3368715 >12 months (200 mg (n = 12)): 0; Time on GSK3368715 3 months to 6 months (Total (N = 31)): 5 (16) n (%); Time on GSK3368715, median (range) (Total (N = 31)): 49 (1, 224) days; Time on GSK3368715 <3 months (Total (N = 31)): 25 (81) n (%); Time on GSK3368715 >6 months to 12 months (Total (N = 31)): 1 n (%) and 1 (3) n (%); Time on GSK3368715 >12 months (Total (N = 31)): 0

From PMC10338470, “Phase 1 study of GSK3368715, a type I PRMT inhibitor, in patients with advanced solid tumors” (British Journal of Cancer, 2023)
